This passage reports step yield results from patent US4176009A (Ajinomoto Co., Inc., priority 1976, dated 1979).

Non-standard residues stand in square brackets, D forms with d. *: point of attachment. dArg(NO2) = N=C(NCCC[C@@H](N)C(=O)O)N[N+](=O)[O-]; Dnp = O=[N+]([O-])c1ccc(*)c([N+](=O)[O-])c1; Boc = CC(C)(C)OC(=O)*; OBn = c1ccc(CO*)cc1

One series in a line: general procedure: solution-phase peptide synthesis; WSCI / 1-hydroxybenzotriazol. To be noted: coupling step.
Dnp-PLGIAGQ[dArg(NO2)]-OBn yielded a step yield of 93%.

Boc-PQGIAGQ[dArg(NO2)]-OBn: the step yield was 69%.

Dnp-PQGIAGQ[dArg(NO2)]-OBn came in with a step yield of 89%.

As for Dnp-PPGIAGQ[dArg(NO2)]-OBn, the step yield came to 73%.

The substance Dnp-PAGIAGQ[dArg(NO2)]-OBn gave a step yield of 83%.

The substance Boc-QGIAGQ[dArg(NO2)]-OBn displayed a step yield of 71%.

Consider Boc-IAGQ[dArg(NO2)]-OBn, for which the step yield is 86%.

Take Dnp-PAGLAGQ[dArg(NO2)]-OBn: the step yield amounted to 72%.

Dnp-AGIAGQ[dArg(NO2)]-OBn: the step yield stood at 60%.

Consider Boc-LAGQ[dArg(NO2)]-OBn, for which the step yield was 70%.

In the case of “PAB-Pro-Gln-Gly-Ile-Ala-Gly-Gln-D-Arg(NO2)-OBzl”, the step yield is 75%.

In the case of Dnp-PQGLAGQ[dArg(NO2)]-OBn, the step yield is on record as 89%.

For Boc-IAG[dArg(NO2)]-OBn, the step yield was 79%.

The substance Dnp-PQGIAG[dArg(NO2)]-OBn came in with a step yield of 79%.

Still in this series, the particulars now being: late stage modification step.
Substance Dnp-PPGIAGQ[dR]-OH yielded a step yield of 85%.

In turn, Dnp-QGIAGQ[dArg(NO2)]-OBn yielded a step yield of 73%.

Regarding “PAB-Pro-Gln-Gly-Ile-Ala-Gly-Gln-D-Arg-OH”, the step yield turned out to be 80%.
